Among the data in article PMC9629621 are binding values, retold here.

Amino acid sequences for entries named in this document (tags omitted).
UniProt P10591: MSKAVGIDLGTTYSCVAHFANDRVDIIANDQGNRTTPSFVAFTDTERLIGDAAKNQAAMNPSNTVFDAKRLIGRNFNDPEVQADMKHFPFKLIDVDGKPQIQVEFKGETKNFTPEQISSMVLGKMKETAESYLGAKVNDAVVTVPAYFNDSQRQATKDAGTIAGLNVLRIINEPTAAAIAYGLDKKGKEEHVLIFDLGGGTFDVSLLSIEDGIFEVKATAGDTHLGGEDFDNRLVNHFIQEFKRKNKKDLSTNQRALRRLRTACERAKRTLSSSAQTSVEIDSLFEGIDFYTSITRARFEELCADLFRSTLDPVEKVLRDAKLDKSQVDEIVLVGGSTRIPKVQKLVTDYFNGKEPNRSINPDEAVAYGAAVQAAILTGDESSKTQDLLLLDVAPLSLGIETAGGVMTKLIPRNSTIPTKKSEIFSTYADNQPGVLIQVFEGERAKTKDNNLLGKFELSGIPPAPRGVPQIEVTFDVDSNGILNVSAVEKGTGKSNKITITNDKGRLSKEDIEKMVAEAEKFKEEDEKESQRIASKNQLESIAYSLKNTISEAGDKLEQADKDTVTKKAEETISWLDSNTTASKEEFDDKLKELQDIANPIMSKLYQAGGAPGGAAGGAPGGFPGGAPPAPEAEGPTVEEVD

The target of test [1] is T1, Pim1 S974D (S. cerevisiae) (UniProt P36775).
T1 sequence: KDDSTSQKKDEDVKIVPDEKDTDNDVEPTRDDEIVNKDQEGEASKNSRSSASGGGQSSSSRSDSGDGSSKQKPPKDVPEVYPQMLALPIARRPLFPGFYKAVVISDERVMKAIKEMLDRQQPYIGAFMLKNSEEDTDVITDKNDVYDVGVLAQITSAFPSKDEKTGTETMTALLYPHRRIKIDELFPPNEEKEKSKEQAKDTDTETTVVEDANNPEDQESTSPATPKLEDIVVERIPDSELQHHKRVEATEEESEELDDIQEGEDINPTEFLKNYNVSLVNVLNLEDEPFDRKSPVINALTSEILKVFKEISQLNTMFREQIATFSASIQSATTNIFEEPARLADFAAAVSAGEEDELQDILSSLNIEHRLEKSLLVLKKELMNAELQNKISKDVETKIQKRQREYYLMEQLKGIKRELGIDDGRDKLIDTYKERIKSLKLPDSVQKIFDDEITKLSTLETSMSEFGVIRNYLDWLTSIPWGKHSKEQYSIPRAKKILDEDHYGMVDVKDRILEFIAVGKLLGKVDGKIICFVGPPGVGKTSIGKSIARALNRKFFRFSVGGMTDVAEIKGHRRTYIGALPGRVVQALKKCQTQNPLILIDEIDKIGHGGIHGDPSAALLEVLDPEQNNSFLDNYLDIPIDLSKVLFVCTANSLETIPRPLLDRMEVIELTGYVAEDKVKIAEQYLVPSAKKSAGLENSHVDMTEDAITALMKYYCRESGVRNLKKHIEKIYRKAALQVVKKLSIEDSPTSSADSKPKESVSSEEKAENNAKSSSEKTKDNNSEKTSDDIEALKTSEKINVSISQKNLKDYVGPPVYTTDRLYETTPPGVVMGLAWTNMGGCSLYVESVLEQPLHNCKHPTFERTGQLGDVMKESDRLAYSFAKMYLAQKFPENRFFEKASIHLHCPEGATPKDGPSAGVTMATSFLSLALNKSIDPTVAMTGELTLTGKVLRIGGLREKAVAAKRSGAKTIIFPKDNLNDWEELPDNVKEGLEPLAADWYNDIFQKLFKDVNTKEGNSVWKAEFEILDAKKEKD
Nature of the test: co-IP; yeast extract (200 ug) on anti-GFP magnetic beads (GFP-TRAP), 4°C overnight; 50 mM Na-phosphate pH 8.0, 300 mM NaCl, 0.01% Tween-20; western blot. On the technique in general: A western blot detects proteins with antibodies after separation by electrophoresis.

For test [2], the target named is T2, Pim1 S974A (S. cerevisiae) (UniProt P36775).
T2 sequence: T1 sequence with D876A
The description is as above.

Numbering of substitutions follows the chain as printed. No constants are given. Whether binding was seen depends on the method and setting. Binding seen in cells or lysates may run through a third protein. Some binding calls cover weakened binding; strength is not graded here.

Turning to “Ssa1 (endogenous, detected with anti-Ssa1) (from UniProt P10591 1-642)”, the binding result in test [1] and in test [2] was “binds” each time.
